Mtb growth Cornell: 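Whole-cell assay for inhibitors of Mycobacterium tuberculosis growth, labelled Cornell in the record; the read-out is not stated. The concentration is filed as 10 mM, unlikely as a test dose, so the dose is not known. The record gives no direction; compounds strong in two other growth screens of this library score well above the rest, so higher reads as stronger inhibition. About 53,000 compounds were tested under these conditions; 1.7% (about 900) showed 50% or more at least once.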
Mtb heat-shock: 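Assay on Mycobacterium tuberculosis, filed only as a heat shock assay from Cornell; the read-out is not stated. The concentration is filed as 10 mM, unlikely as a test dose, so the dose is not known. Direction is inferred from retests: higher values go with stronger inhibition. Size under these conditions: about 69,000 compounds, about 930 of them at 50% or above in at least one test.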

The filed quantity is “Percent Effect” (%).
How 0% and 100% were set is not recorded. Most values in the screen are low, and negative values occur.
The compounds are a random part of those screened.
A dash means the value is not listed here; it may have been measured.

compound	Mtb growth Cornell	Mtb heat-shock
CC(=O)N1CCN(CCOc2ccc(F)cc2)CC(C(N)=O)C1 (stereo not drawn)	1.306	-12.66
COc1ccc(C(CN2CCN(C)CC2)Nc2ncccn2)cc1 (stereo not drawn)	8.934	-25.77
CCC[C@]12CN3C[C@](C)(CN(C1)C3c1[nH]c(=O)[nH]c(=O)c1C)C2=O (stereo partly drawn)	10	-3.215
Cc1cccc(C(=O)Nc2ccc(OC3CCN(C)CC3)cc2)c1	-16.24	-10.64
CC1(C(N)=O)CN(S(=O)(=O)c2cccc(F)c2)CCO1 (stereo not drawn)	-8.727	-29.49
CC(=O)N1CC[C@H](c2nc3cc(F)ccc3o2)C1	9.97	-24
[H][C@]12CC[C@]([H])(CN(S(C)(=O)=O)C1)N(C(=O)CCc1ccsc1)C2	0.1314	29.72
COCCc1noc(CNC2CCSC2)n1 (stereo not drawn)	-27.74	20.87
Cc1cnn(CC2CCCN2Cc2noc(C(C)C)n2)c1 (stereo not drawn)	11.62	-13.37
Cc1noc(-c2cnc(NC3CC3)nc2-c2ccco2)c1C	21.85	-8.646
COc1c(C(=O)NCc2cccnc2)nnn1Cc1ccccc1	-	-0.5065
CCC(C)N(Cc1sccc1C)C(=O)c1cc(N)ccn1 (stereo not drawn)	-	-11.72
Cc1cnc2c(C(=O)N3CCCC(OCc4ccccn4)C3)cnn2c1 (stereo not drawn)	-2.945	-26.38
COc1ccc(C(C(=O)O)N(C)Cc2ccon2)cc1Cl (stereo not drawn)	-32	13.58
O=C(COc1cccc2c1CCC2=O)NCC(F)(F)F	6.516	8.094
COCc1nc(CNc2cc(C)nc(-c3ccccc3)n2)no1	15.56	-0.05006
CN(Cc1cscn1)C(=O)C(c1ccccc1)N1CCSCC1 (stereo not drawn)	-21.67	-33.75
CN1CCOCC2(CCCN(C(=O)c3ccccc3F)C2)C1.O=C(O)C(F)(F)F (stereo not drawn)	-69.75	-25.25
Cc1noc(C)c1CN1CCOC(CNc2cccnn2)C1 (stereo not drawn)	-	-20.66
CCN1CCc2[nH]cnc2C12CCN(Cc1ccc3nsnc3c1)CC2	36.27	14.37
COc1ccc(-c2noc(CNC(C)Cn3cccn3)n2)c(OC)c1 (stereo not drawn)	-5.356	-27.41
Cc1cccc(-c2noc(CN3CCOC(Cn4cccn4)C3)n2)c1 (stereo not drawn)	-	0.1835
O=c1cc(CNCc2ccc3c(c2)OCO3)nc2ccc(Br)cn12	11.36	-10.07
CC(C)[C@H]1CN(Cc2ccccn2)C[C@@H]1NC(=O)CCS(C)(=O)=O	-7.467	-18.86
CCn1c(N)nc2cc(C(=O)N3CC(c4ccccn4)C3)cnc21	-16.57	23.7
CCCC(=O)N1CCC(Cc2ccccc2-c2ccccc2)(C(N)=O)C1 (stereo not drawn)	-28.57	-14.27
c1cnc(-c2nc(CN3CCCC(Cn4cncn4)C3)cs2)nc1 (stereo not drawn)	11.22	4.793
CCN(CC)c1ncccc1CNCc1ccc(-c2ccn[nH]2)s1	1.617	11.73
CC(C)Cc1nc(OCC#N)c(C#N)c2c1CCC2	-16.74	-22.68
N#Cc1c(Cl)nsc1NCc1ccnc(OCC(F)(F)F)c1	-16.24	12.65
CC(C)n1ncc2c1NC(=O)CC21C(=O)Nc2c(Cl)cccc21 (stereo not drawn)	-	10.68
O=c1[nH]cnc2c1CCN(S(=O)(=O)c1cccc(OC(F)(F)F)c1)C2	-0.4515	2.606
CCC(O)CN(Cc1ccccc1)S(=O)(=O)c1cnc(C)s1 (stereo not drawn)	32.24	-9.319
Cc1nc(C2CCCN2Cc2nnc(C3CC3)o2)no1 (stereo not drawn)	31.76	3.14
CC(C)OCCN1CCC(Nc2ccc(C#N)cc2F)CC1	-	-15.37
O=C(O)C(F)(F)F.[H][C@@]12OCCN(Cc3ccc(F)cc3)[C@@]1([H])CC[C@H]2OC	46.02	-14.29
CC(=O)N1CCC(N[C@@H]2CC[C@@H]2NS(=O)(=O)c2cccnc2)CC1	-	18.97
COc1ncccc1CNC(=O)Nc1cc(C)nn1C	-43.25	-5.973
O=C(O)C(F)(F)F.O=C(O)C(F)(F)F.[H][C@@]12CCN(CCN(CC)CC)C[C@]1(C(=O)N1CCOCC1)CCO2	-2.826	6.776
Cc1ccc(N2CCCC(NCc3ccccn3)C2)nn1 (stereo not drawn)	-41.32	-17.64
Cl.Cl.c1ccc2c(c1)C(NC1CCCC1)CC21CCNCC1 (stereo not drawn)	8.031	-6.748
Cn1ccnc1C(O)c1ccccc1N1CCN(Cc2cccs2)CC1 (stereo not drawn)	37.24	-6.555
Cc1ccc(CNc2ccc(C(=O)N3CCNC(=O)C3)cn2)cc1	2.375	-3.829
[H][C@]12CC[C@]([H])(CN(Cc3ccc(OC)cc3)C1)N(Cc1snnc1C)C2	9.092	2.936
O=S(=O)(NCc1cn2ccccc2n1)N1CCOCC1	-	7.267
Cc1cc(CNC(=O)C2CCCCN2C(=O)OC(C)(C)C)no1 (stereo not drawn)	-0.6827	8.17
CCN1CCN(C(=O)NCCOc2ccc3c(c2)OCO3)CC1	16.64	11.88
[H][C@@]12C[C@H](C(=O)NCC3CC3)[C@@]([H])(CN(S(=O)(=O)c3cccc(C)c3)C1)O2	15.55	14.48
CCc1nnc(CN2CCN(C(=O)c3ccccn3)CC2)o1	-	3.832
[H][C@]12CCN(C(N)=O)[C@@]1([H])CC[C@H](COCC(=O)N1CCCC1)O2	-47.36	-40
Fc1cnccc1CN1CCCC2(CCN(c3ncccn3)CC2)C1.O=C(O)C(F)(F)F	17.58	-11.95
Cc1ccc(C(C(=O)NCCN2CCCCCC2)N(C)C)cc1 (stereo not drawn)	11.64	14.55
Cc1cc(NC(=O)NCC(c2ccccc2)N2CCOCC2)n(C)n1 (stereo not drawn)	31.34	-4.171
CC1(c2ccccc2)CCCN(Cc2cncn2C2CCCC2)C1 (stereo not drawn)	105.1	105.4
Cc1cc(C(=O)N2CCC(NC(=O)c3cccnc3)CC2)c(C)o1	-	-15.2

Data taken from ChEMBL document CHEMBL3988442, “University of Dundee, Small-Polar-MMV Screening Library” (2021).